Measured values: PubChem BioAssay AID2685 (National Center for Advancing Translational Sciences (NCATS), 2010)
The other results are listed elsewhere or left out. Further columns of the screen follow, without active or inactive calls. Compounds called inactive in the main read-out are mostly missing here. The note in brackets gives the kind of curve behind each potency; many fits are weak.

Test: qHTS Assay for Lipid Storage Modulators in Drosophila S3 Cells;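 as to cell number change: cells counted by Cell Tracker Red CMTPX staining in the red channel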
Conditions: BODIPY lipid droplet fluorescence, 18-24 h; for cell number change: measured here: cell count max response, cells fed with added oleic acid
How it was run: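 Laser-scanning cytometry quantifies lipid droplet accumulation (500–530 nm total intensity; droplet/cell object ratio) in oleic acid-fed (400 uM added) Drosophila S3 cells treated with a concentration series. 20 uM Triacsin C defined 100% inhibition.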

[1] = measured here: lipid fluorescence (Fed channel) AC50, cells fed with added oleic acid
[2] = measured here: cell number channel AC50, cells fed with added oleic acid

Compound	cell number change [%]	AC50 [1]	AC50 [2]
Cn1c(Cc2cccc3ccccc23)nnc1SCC(=O)N1CCN(c2cccc(Cl)c2)CC1	12.3	–	–
COC(=O)c1sccc1NC(=O)CSc1ccccc1NC(=O)CNC(C)C	-41	–	–
O=C(Nc1cccc(F)c1)c1ccc2ncsc2c1	3.52	0.184 µM [rising, single point]	–
Cc1ccccc1N1CCN(CCCN2C(=O)C3CCCCN3C2=O)CC1 (centres undefined)	3.31	18.4 µM [falling, partial curve]	–
Cc1cnc(C(=O)OCC(=O)NC2CCCCCC2)cn1	-26.9	–	–
O=C1C=CC(=O)C(C2=C3C(=O)N(CCc4ccccc4)CC(=O)N3CCC2)=C1	-83	14.6 µM [falling, partial curve]	14.6 µM [falling, partial curve]
CN(C)CCCN(Cc1ccccc1)C(=S)Nc1ccc(SC(F)F)cc1	4.19	0.461 µM [rising, single point]	0.411 µM [rising, single point]
O=C(CCc1ccc(O)c(O)c1)N/N=C/c1ccc2c(c1)OCO2	-40.5	–	20.6 µM [falling, single point]
O=C(NC(c1ccccc1)c1ccccc1)N1CCN(CCO)CC1	9.25	–	–
COC(=O)c1sccc1NC(=O)c1cnc2cc(C)nn2c1C	63.4	–	–
COc1ccc(-c2nn(-c3ccccc3)cc2/C=C\C(=O)Nc2ccc(C(=O)O)cc2)cc1	18	0.517 µM [rising, single point]	–
COc1ccc(OCCCC(=O)Nc2ccc(N3CCCCC3)cc2)cc1	16.7	0.291 µM [falling, partial curve, poor fit]	0.184 µM [falling, full curve, poor fit]
CC(C)(C)c1ccc(OCCC(=O)Nc2cccc(S(=O)(=O)N3CCCC3)c2)cc1	-24.1	–	–
CCn1c(SCC(=O)c2c[nH]c3ccccc23)nnc1-c1cccs1	–	6.51 µM [rising, partial curve]	1.46 µM [rising, partial curve]
Cc1ccc(-c2c(NCCc3ccccc3)c(=O)c2=O)cc1	–	23.1 µM [falling, single point]	–
O=C(NC1CCCCC1)c1ccc(-n2cnnn2)cc1	–	0.164 µM [falling, full curve]	–
COc1ccc(C(C)NC(=O)c2ccccc2)cc1 (centres undefined)	40.7	–	9.2 µM [rising, partial curve]
C[C@]12C=CC(=O)C=C1CCC1C3CC[C@](O)(C(=O)CO)[C@@]3(C)CC3OC312 (some centres undefined)	-4.48	0.00461 µM [falling, full curve, poor fit]	–
CC1CCCN(S(=O)(=O)c2ccc(NC(=O)C3CCN(C(=O)c4ccco4)CC3)cc2)C1 (centres undefined)	8.7	–	–
CC(C)COP(=O)(c1ccc(N(C)C)cc1)C(O)c1ccccc1 (centres undefined)	-20.8	6.51 µM [falling, single point]	–
COc1ccc(C(=O)Nc2nnc(SCC(=O)NC3CC3)s2)cc1	23.9	–	–

Not a retest: entries from further up.
Compound	cell number change [%]	AC50 [1]	AC50 [2]
O=C(NC1CCCCC1)c1ccc(-n2cnnn2)cc1	–	0.164 µM [falling, full curve]	–
COc1ccc(C(C)NC(=O)c2ccccc2)cc1 (centres undefined)	40.7	–	9.2 µM [rising, partial curve]
C[C@]12C=CC(=O)C=C1CCC1C3CC[C@](O)(C(=O)CO)[C@@]3(C)CC3OC312 (some centres undefined)	-4.48	0.00461 µM [falling, full curve, poor fit]	–
CC1CCCN(S(=O)(=O)c2ccc(NC(=O)C3CCN(C(=O)c4ccco4)CC3)cc2)C1 (centres undefined)	8.7	–	–

Additional results:

Compound	cell number change [%]	AC50 [1]	AC50 [2]
CCOc1ccc(OCC)c(NC(=O)C2CCN(S(=O)(=O)c3cccnc3)CC2)c1	11.4	0.651 µM [rising, full curve]	0.58 µM [rising, full curve]
Cc1cccc(C(C#N)c2ccc(Cl)nn2)c1 (centres undefined)	1.17	–	2.31 µM [falling, single point]
CCN(CC)c1nc2c(c(=O)[nH]c(=O)n2C)n1Cc1ccccc1Cl	36.1	29.1 µM [rising, single point]	–
O=C(Cc1cccs1)Nc1ccc(S(=O)(=O)N2CCCC2)cc1	-18	18.4 µM [falling, single point]	–
C/C(CCc1ccco1)=N/NC(=O)CCC(=O)Nc1ccc(Br)cc1	9.65	32.6 µM [rising, single point]	–
CCOC(=O)C1CCN(C(=O)CN(c2ccc3c(c2)OCO3)S(C)(=O)=O)CC1	-18.7	–	0.00517 µM [falling, full curve]
COc1cccc(NC(=O)CN(C)C(=O)CCCNC(=O)c2ccc(Cl)cc2)c1	-4.81	23.1 µM [rising, single point]	–
COc1cccc(N2CCN(S(=O)(=O)c3ccc4c(c3)NC(=O)CS4)CC2)c1	-15.4	–	–
O=C(COC(=O)c1cc([N+](=O)[O-])ccc1N1CCOCC1)NCCc1ccccc1	11	32.6 µM [falling, single point]	–
Cc1ccc(C(=O)/C=C/Nc2ccc([N+](=O)[O-])cc2Br)cc1	-4.32	29.1 µM [falling, single point]	–
COc1ccc(C(CNC(=O)c2ccc(S(=O)(=O)N3CCCC3)cc2)N(C)C)cc1OC (centres undefined)	35.7	–	6.51 µM [rising, single point]
O=C(Cn1ccccc1=O)Nc1ccc(Cl)c(S(=O)(=O)N2CCCCC2)c1	13.7	0.731 µM [rising, full curve, poor fit]	–
Cc1ccc(C(=O)NCc2ccccn2)cc1S(=O)(=O)N1CCCCC1	-15.6	–	–
O=C1CC2(CCN(C(=O)COc3ccc(Cl)cc3)CC2)Oc2ccccc21	–	0.184 µM [rising, full curve, poor fit]	0.366 µM [rising, full curve, poor fit]
COc1cc(NC(=S)Nc2ccccn2)c(OC)cc1Cl	7.68	–	–
COc1ccccc1NC(=O)c1ccc(N2CC3CC(C2)c2cccc(=O)n2C3)c(NC(=O)c2cccnc2)c1 (centres undefined)	9.25	–	–
Cc1cc(=O)oc2cc(OCC(O)CN3CCN(c4ccccc4)CC3)ccc12 (centres undefined)	–	23.1 µM [falling, partial curve]	1.16 µM [falling, full curve]
CN(c1ccc(OCC(=O)OCC(=O)Nc2ccccc2F)cc1)S(=O)(=O)c1cccs1	-8.15	6.51 µM [rising, partial curve, poor fit]	6.51 µM [rising, partial curve, poor fit]
O=c1c2c(C(F)(F)F)cc(C(F)(F)F)nc2[nH]n1-c1ccccc1	33.1	–	29.1 µM [rising, single point]
N#Cc1cnc2ncnn2c1-c1ccccc1	-1.77	–	–
Cc1ccc2sc(N3CCN(C(=O)c4ccc([N+](=O)[O-])o4)CC3)nc2c1C	-19.6	0.58 µM [falling, single point]	1.3 µM [falling, full curve, poor fit]

Compound	cell number change [%]	AC50 [1]	AC50 [2]
CC(=O)Nc1nnc(SCc2cccc(F)c2)s1	-14.1	0.0366 µM [falling, full curve, poor fit]	–
O=C1NCCn2nc3ccccc3c21	-6.45	2.06 µM [rising, partial curve]	–
Cn1c(CC(=O)Nc2ccccc2)nnc1SCCOc1ccccc1	4.85	–	–
CCOc1ccc(NC(=S)NC(=O)c2c(Cl)c(C)nn2C)c([N+](=O)[O-])c1	17.1	13 µM [rising, single point]	–
Cc1ccc(C)c2[nH]c(=O)c(CN(CCN3CCOCC3)Cc3nnnn3CC3CCCO3)cc12 (centres undefined)	-8.15	6.51 µM [rising, single point]	–
COC(=O)c1cc(NC(=O)c2c(-c3ccccc3)noc2C)ccc1N1CCOCC1	–	3.66 µM [rising, single point]	0.58 µM [rising, partial curve]
O=C(CN1CCCCCC1)Nc1ccc(Br)cn1	-51.6	–	0.092 µM [falling, full curve]
CCCNC(=O)c1ccc(N2CCC3(CC2)CC(c2cccc(Br)c2)=NO3)c(NC(=O)c2cccc(OC)c2)c1	-18.1	–	0.184 µM [rising, full curve, poor fit]
CCOCCn1c(=O)c2c(nc3n2CC(C)CN3CCc2ccccc2)n(C)c1=O (centres undefined)	3.67	25.9 µM [falling, single point]	–
COc1ccc(-c2cc(C(=O)N3CCN(c4ccccc4O)CC3)c3ccccc3n2)cc1OC	-33.2	12.6 µM [falling, single point]	15.8 µM [falling, single point]
CCOc1nc(-c2ccccc2)c2cc(C)ccc2n1	-2.39	6.51 µM [rising, partial curve, poor fit]	–
CC(=O)Nc1nonc1NC(=O)c1ccc(C(C)(C)C)cc1	-24.2	6.51 µM [rising, single point]	–
C#Cc1ccc(CN2CCN(CCc3ccccc3)C(CCO)C2)cc1 (centres undefined)	17	29.1 µM [rising, single point]	–
Cc1ccc(OCC(O)CN2CCOCC2)c(C)c1 (centres undefined)	6.16	29.1 µM [rising, single point]	–
Cc1noc(C)c1S(=O)(=O)N1CCN(c2ccc([N+](=O)[O-])cc2)CC1	-13.1	29.1 µM [rising, single point]	–
CCc1c(C(=O)NNC(=S)NCC(C)C)csc1C	-47.6	–	5.17 µM [falling, partial curve]
COc1ccc(S(=O)(=O)NC(C)C(=O)NCc2ccco2)cc1OC (centres undefined)	11.1	29.1 µM [rising, single point]	–
Cc1onc(-c2ccccc2)c1-c1nnc(CN2CCN(S(=O)(=O)c3ccccc3F)CC2)o1	-31.2	0.0103 µM [falling, full curve, poor fit]	23.1 µM [falling, partial curve, poor fit]
O=C(COC(=O)CCS(=O)(=O)c1ccccc1)Nc1ccccc1	-1.94	29.1 µM [rising, single point]	–
